Reference: patent US20200345049A1, “COMPOSITIONS” (Givaudan, S.A., priority 2017, published 2020)
Some entries share one result that the patent states for a list of compounds.

Tested on: sweet sensitive taste panel
Assay: Sweetness ranking against sucrose solutions to determine sucrose equivalence
Assay type: in vivo, human
Text: The term “sucrose equivalence” refers to the equivalence in sweetness of a composition containing at least one non-sucrose sweetener to a reference sucrose solution. Typically, taste panellists are trained to detect sweetness of reference sucrose solutions containing between 1% and 15% sucrose (w/v). Other non-sucrose sweeteners may then be tasted at a series of dilutions to determine the concentration of the non-sucrose sweetener that is as sweet (i.e. isosweet) to a given sucrose reference. The term “isosweet” refers to compositions that have equivalent sweetness. Typically, the sweetness of a given composition is measured with reference to a solution of sucrose. See “A Systematic Study of Concentration-Response Relationships of Sweeteners,” G. E. DuBois, D. E. Walters, S. S. Schiffman, Z. S. Warwick, B. J. Booth, S. D. Pecore, K. Gibes, B. T. Carr, and L. M. Brands, in Sweeteners: Discovery, Molecular Design and Chemoreception, D. E. Walters, F. T. Orthoefer, and G. E. DuBois, Eds., American Chemical Society, Washington, D.C. (1991), pp 261-276.
A sweet sensitive taste panel ranked the sweetness of solutions of a mixture of sweeteners (“Mixture 1”) in relation to sucrose solutions at a range of concentrations to determine sucrose equivalence. Mixture 1 was a combination of fractions 11 to 18 of Example 2 and contained 8.16 wt % 11-O-mogroside V and 61.6 wt % mogroside V. The results are shown in Table 6 below.
A sweet sensitive taste panel ranked the sweetness of solutions of various sweeteners (mogroside V, mogroside IV, siamenoside, neomogroside, 11-O-mogroside V) in relation to sucrose solutions at a range of concentrations to determine sucrose equivalence. The sweeteners were obtained using an Agilent 1100 preparative HPLC system with a Phenomenex Luna C18 (2) column (5 μm, 210×21.4 mm).

C[C@H](CC[C@@H](O[C@@H]1O[C@H](CO[C@@H]2O[C@H](CO)[C@@H](O)[C@H](O)[C@H]2O)[C@@H](O)[C@H](O)[C@H]1O[C@@H]1O[C@H](CO)[C@@H](O)[C@H](O)[C@H]1O)C(C)(C)O)[C@H]1CC[C@@]2(C)[C@H]3CC=C4[C@@H](CC[C@H](O[C@@H]5O[C@H](CO)[C@@H](O)[C@H](O)[C@H]5O)C4(C)C)[C@]3(C)[C@H](O)C[C@]12C [Siamenoside]
Sweetness (sucrose equivalence) (25 ppm): below 1.5 % sucrose equivalence

C[C@H](CC[C@@H](O[C@@H]1O[C@H](CO)[C@@H](O)[C@H](O)[C@H]1O[C@@H]1O[C@H](CO)[C@@H](O)[C@H](O)[C@H]1O)C(C)(C)O)[C@H]1CC[C@@]2(C)[C@H]3CC=C4[C@@H](CC[C@H](O[C@@H]5O[C@H](CO[C@@H]6O[C@H](CO)[C@@H](O)[C@H](O)[C@H]6O)[C@@H](O)[C@H](O)[C@H]5O)C4(C)C)[C@]3(C)[C@H](O)C[C@]12C [Mogroside IV]
Sweetness (sucrose equivalence) (30 ppm): below 1.5 % sucrose equivalence

C[C@H](CC[C@@H](O[C@@H]1O[C@H](CO[C@H]2O[C@H](CO)[C@H](O)[C@H](O)[C@H]2O)[C@@H](O)[C@H](O)[C@H]1O[C@@H]1O[C@H](CO)[C@@H](O)[C@H](O)[C@H]1O)C(C)(C)O)[C@H]1CC[C@@]2(C)[C@H]3CC=C4[C@@H](CC[C@H](O[C@@H]5O[C@H](CO[C@@H]6O[C@H](CO)[C@@H](O)[C@H](O)[C@H]6OC6O[C@H](CO)[C@@H](O)[C@H](O)[C@H]6O)[C@@H](O)[C@H](O)[C@H]5O)C4(C)C)[C@]3(C)[C@H](O)C[C@]12C (stereo partly drawn) [Neomogroside]
Sweetness (sucrose equivalence) (30 ppm): below 1.5 % sucrose equivalence
